The match of structure and compound is tentative.
Molecular target: Pin1 (Homo sapiens, UniProt Q13526)
Assay: Pin1 inhibition assay (SensoLyte Green Pin1 Assay Kit)

By UniProt entry, the sequences of proteins in these tests, tags left out.
UniProt Q13526, whole entry: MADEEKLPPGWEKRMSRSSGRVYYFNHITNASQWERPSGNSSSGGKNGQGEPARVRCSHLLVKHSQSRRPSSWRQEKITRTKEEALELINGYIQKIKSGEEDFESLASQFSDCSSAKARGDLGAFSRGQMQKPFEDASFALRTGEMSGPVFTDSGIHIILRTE

Work on `CN(C)c1ccc(C2CC(c3nc4cc(Cl)c(Cl)cc4[nH]3)=NO2)cc1` (centres unmarked) [Compound 8, 4-(3-(5,6-Dichloro-1H-benzo[d]imidazol-2-yl)-4,5-dihydroisoxazol-5-yl)-N,N-dimethylaniline] yielded a Pin1 %inh (conc 1 ng/ml) of 49.1% and a Pin1 %inh (conc 100 ng/ml) of 84.8%.

— publication PMC9414874, “New Benzimidazoles Targeting Breast Cancer: Synthesis, Pin1 Inhibition, 2D NMR Binding, and Computational Studies” (Molecules, 2022)
